Test results from paper PMC4941268.
These are yes or no findings as the source states them, for the method shown. In cells and extracts the contact can be indirect. Some binding calls cover weakened binding; strength is not graded here. For some of these results: Where a sequence is shown, tags or fusion partners need not be part of it.

Sequences of proteins named here, by UniProt entry; tags and fusion partners are left off. A change or cut given only in a name is not applied to a line headed by its entry.
UniProt P02545: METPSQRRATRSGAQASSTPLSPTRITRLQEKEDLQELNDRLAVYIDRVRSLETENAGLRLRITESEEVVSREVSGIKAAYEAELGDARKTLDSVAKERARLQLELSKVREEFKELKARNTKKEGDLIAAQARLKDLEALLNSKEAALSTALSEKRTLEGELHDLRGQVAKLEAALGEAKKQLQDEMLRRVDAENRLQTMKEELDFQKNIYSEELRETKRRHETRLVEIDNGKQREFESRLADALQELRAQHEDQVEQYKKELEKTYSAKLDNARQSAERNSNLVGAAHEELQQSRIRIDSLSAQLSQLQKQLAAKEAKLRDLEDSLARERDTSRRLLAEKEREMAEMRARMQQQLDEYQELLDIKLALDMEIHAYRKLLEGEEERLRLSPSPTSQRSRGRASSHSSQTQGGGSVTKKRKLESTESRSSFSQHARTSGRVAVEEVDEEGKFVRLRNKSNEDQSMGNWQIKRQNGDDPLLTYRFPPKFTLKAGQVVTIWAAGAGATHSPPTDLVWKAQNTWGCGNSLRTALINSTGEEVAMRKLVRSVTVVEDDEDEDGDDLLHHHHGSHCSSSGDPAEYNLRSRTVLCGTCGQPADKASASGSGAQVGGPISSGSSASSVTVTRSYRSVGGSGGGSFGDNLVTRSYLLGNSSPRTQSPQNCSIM
UniProt P45973: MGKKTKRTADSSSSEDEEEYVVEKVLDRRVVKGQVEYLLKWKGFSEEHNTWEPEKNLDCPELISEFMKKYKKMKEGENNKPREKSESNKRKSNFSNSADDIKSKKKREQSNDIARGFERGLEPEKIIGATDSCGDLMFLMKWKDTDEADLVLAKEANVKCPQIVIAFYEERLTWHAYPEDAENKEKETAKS

Columns and labels:
[1] = target: FLAG-tagged prelamin A (LA-C661M) (UniProt P02545); experiment: co-IP; anti-FLAG immunoprecipitation from HEK293 cells cotransfected with FLAG-lamin constructs and GFP-BAF-WT, BAF-A12T or BAF-G47E; cells fixed in 1% formaldehyde 10 min at room temperature, lysed in 1% SDS, 10 mM EDTA, 50 mM Tris-HCl pH 8.0, glass beads and sonication; IP overnight at 4°C; blots for FLAG, GFP, HP1α and LAP2α
[2] = target: full length FLAG-tagged prelamin A (LA-WT) (UniProt P02545); experiment: as above
[3] = target: FLAG-tagged prelamin A (LA-C661M) (UniProt P02545); experiment: co-IP; anti-FLAG immunoprecipitation from cotransfected HEK293 cells (FLAG-lamin A constructs with GFP-BAF constructs), 24 h after transfection; lysis in 50 mM TRIS-HCl pH 8.0, 150 mM NaCl, 1% NP40, 0.1% SDS; antibody overnight at 4°C, protein A/G; blots for FLAG and GFP
[4] = target: full length FLAG-tagged prelamin A (LA-WT) (UniProt P02545); experiment: as above

HP1-alpha (from UniProt P45973 1-191)
binding [1]: binds | binding [2]: binds

B1: GFP-tagged wild type BAF (BAF-WT) (protein, UniProt O75531 1-89)
chain: MTTSQKHRDFVAEPMGEKPVGSLAGIGEVLGKKLEERGFDKAYVVLGQFLVLKKDEDLFREWLKDTCGANAKQSRDCFGCLREWCDAFL
binding [3]: binds | binding [4]: binds

B2: GFP-tagged NGPS-BAF mutant (BAF-A12T) (protein, UniProt O75531 1-89)
chain: MTTSQKHRDFVTEPMGEKPVGSLAGIGEVLGKKLEERGFDKAYVVLGQFLVLKKDEDLFREWLKDTCGANAKQSRDCFGCLREWCDAFL
binding [3]: binds | binding [4]: binds

B3: GFP-tagged BAF mutant BAF-G47E (protein, UniProt O75531 1-89)
chain: MTTSQKHRDFVAEPMGEKPVGSLAGIGEVLGKKLEERGFDKAYVVLEQFLVLKKDEDLFREWLKDTCGANAKQSRDCFGCLREWCDAFL
binding [3]: binds weakly | binding [4]: binds weakly

B4: LAP2-alpha (protein, UniProt P42166 1-694)
chain: MPEFLEDPSVLTKDKLKSELVANNVTLPAGEQRKDVYVQLYLQHLTARNRPPLPAGTNSKGPPDFSSDEEREPTPVLGSGAAAAGRSRAAVGRKATKKTDKPRQEDKDDLDVTELTNEDLLDQLVKYGVNPGPIVGTTRKLYEKKLLKLREQGTESRSSTPLPTISSSAENTRQNGSNDSDRYSDNEEGKKKEHKKVKSTRDIVPFSELGTTPSGGGFFQGISFPEISTRPPLGSTELQAAKKVHTSKGDLPREPLVATNLPGRGQLQKLASERNLFISCKSSHDRCLEKSSSSSSQPEHSAMLVSTAASPSLIKETTTGYYKDIVENICGREKSGIQPLCPERSHISDQSPLSSKRKALEESESSQLISPPLAQAIRDYVNSLLVQGGVGSLPGTSNSMPPLDVENIQKRIDQSKFQETEFLSPPRKVPRLSEKSVEERDSGSFVAFQNIPGSELMSSFAKTVVSHSLTTLGLEVAKQSQHDKIDASELSFPFHESILKVIEEEWQQVDRQLPSLACKYPVSSREATQILSVPKVDDEILGFISEATPLGGIQAASTESCNQQLDLALCRAYEAAASALQIATHTAFVAKAMQADISQAAQILSSDPSRTHQALGILSKTYDAASYICEAAFDEVKMAAHTMGNATVGRRYLWLKDCKINLASKNKLASTPFKGGTLFGGEVCKVIKKRGNKH
binding [1]: binds | binding [2]: binds
